Assay results as given in the supplement of paper PMC10849652.
The list shows a part of the results.

Protein sequences, listed by entry. Tags and fused reporters are not part of them. Lines headed by an entry give the natural chain unless they say otherwise; changes in a name come on top.
UniProt Q9UM13, whole entry, looked up: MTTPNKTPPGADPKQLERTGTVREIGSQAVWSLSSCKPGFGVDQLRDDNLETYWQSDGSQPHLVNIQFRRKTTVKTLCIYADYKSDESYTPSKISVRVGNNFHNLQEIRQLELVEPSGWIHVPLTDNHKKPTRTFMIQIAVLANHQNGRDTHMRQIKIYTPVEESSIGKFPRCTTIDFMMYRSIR
UniProt Q6RW13: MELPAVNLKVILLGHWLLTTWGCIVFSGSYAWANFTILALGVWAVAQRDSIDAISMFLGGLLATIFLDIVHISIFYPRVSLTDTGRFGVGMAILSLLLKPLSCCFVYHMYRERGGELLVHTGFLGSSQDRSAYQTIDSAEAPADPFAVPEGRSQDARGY
UniProt Q13155: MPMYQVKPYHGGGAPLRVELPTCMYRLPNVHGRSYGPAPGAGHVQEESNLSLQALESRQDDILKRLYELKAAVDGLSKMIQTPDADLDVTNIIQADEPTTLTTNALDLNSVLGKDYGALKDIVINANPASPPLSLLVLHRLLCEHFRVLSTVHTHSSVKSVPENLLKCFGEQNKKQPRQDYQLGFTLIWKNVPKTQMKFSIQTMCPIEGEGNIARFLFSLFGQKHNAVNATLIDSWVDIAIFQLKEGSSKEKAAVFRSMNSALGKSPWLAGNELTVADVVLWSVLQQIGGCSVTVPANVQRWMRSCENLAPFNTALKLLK
UniProt P31749: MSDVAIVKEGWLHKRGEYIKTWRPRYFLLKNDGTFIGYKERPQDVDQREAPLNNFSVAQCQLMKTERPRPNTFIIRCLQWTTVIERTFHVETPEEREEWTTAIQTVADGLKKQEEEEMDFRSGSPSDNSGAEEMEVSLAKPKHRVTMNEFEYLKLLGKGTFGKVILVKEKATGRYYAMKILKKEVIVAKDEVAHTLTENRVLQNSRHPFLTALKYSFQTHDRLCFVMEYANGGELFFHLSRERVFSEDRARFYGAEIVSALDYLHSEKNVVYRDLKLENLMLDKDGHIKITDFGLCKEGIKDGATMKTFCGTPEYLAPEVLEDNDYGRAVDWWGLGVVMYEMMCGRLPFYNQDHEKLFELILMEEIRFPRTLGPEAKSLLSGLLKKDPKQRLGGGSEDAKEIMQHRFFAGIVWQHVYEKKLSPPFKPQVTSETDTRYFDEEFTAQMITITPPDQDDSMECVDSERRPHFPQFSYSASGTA
UniProt P11766: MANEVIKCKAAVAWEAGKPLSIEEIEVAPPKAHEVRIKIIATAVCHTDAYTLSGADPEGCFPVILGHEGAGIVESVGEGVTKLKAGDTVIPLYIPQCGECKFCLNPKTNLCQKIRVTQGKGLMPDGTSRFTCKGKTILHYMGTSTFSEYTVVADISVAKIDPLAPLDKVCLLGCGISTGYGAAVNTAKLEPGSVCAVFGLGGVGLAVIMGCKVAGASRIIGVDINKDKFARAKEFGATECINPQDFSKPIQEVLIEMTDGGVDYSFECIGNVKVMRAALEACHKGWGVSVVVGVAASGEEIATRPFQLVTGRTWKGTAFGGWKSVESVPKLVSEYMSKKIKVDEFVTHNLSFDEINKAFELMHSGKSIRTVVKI
UniProt Q92685: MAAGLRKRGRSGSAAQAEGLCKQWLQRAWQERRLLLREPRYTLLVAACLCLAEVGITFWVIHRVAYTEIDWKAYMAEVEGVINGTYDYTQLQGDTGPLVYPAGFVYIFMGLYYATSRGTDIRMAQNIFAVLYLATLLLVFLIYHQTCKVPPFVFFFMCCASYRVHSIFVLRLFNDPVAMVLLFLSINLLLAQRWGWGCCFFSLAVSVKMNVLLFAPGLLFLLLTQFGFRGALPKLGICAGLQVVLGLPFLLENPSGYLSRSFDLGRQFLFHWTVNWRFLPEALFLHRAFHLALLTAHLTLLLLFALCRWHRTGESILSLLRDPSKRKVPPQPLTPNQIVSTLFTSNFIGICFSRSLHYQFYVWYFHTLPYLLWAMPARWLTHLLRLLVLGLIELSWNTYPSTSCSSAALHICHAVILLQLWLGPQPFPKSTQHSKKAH
UniProt P42330: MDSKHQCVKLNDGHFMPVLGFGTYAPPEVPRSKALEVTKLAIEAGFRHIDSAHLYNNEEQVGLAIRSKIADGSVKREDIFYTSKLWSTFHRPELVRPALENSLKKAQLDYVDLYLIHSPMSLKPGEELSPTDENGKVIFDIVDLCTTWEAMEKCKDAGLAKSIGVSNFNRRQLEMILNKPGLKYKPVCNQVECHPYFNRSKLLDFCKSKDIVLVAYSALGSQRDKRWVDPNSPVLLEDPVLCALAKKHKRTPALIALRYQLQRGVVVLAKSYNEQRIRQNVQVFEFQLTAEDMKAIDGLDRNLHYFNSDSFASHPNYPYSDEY
UniProt Q9NXW9: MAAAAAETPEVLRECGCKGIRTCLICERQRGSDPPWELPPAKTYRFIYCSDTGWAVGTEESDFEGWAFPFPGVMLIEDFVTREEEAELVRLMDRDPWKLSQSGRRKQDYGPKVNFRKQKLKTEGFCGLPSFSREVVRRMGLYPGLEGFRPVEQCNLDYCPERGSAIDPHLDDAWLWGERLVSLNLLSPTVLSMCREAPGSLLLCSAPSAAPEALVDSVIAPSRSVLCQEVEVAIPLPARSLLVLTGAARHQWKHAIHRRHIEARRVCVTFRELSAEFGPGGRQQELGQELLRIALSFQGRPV
UniProt Q99943: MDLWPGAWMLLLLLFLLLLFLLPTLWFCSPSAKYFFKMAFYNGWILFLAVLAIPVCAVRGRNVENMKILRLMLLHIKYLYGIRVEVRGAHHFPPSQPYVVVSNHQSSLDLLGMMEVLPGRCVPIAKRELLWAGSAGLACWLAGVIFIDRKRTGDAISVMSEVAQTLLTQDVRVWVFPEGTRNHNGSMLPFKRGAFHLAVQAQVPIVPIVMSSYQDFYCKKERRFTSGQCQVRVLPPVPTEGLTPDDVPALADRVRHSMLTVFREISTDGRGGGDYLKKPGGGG
UniProt Q9Y673: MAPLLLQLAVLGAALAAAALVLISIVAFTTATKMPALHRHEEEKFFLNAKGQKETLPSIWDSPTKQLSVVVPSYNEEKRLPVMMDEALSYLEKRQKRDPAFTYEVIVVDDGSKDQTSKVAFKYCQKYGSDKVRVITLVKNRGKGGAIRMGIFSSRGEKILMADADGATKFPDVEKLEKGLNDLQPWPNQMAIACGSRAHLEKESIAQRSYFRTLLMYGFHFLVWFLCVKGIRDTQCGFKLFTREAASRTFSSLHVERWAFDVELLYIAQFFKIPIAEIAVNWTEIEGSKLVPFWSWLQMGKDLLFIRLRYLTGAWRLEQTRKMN
UniProt Q9BRQ8: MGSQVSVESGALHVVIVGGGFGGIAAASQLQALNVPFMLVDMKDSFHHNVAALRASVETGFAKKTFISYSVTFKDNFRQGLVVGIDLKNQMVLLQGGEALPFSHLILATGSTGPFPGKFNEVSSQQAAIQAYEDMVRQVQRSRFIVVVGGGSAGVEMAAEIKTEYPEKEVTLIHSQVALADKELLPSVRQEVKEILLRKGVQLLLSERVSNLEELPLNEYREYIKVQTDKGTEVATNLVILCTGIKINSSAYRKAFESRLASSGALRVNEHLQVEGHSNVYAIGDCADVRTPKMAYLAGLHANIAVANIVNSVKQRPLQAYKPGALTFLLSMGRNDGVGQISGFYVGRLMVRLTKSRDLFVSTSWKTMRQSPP
UniProt Q02252: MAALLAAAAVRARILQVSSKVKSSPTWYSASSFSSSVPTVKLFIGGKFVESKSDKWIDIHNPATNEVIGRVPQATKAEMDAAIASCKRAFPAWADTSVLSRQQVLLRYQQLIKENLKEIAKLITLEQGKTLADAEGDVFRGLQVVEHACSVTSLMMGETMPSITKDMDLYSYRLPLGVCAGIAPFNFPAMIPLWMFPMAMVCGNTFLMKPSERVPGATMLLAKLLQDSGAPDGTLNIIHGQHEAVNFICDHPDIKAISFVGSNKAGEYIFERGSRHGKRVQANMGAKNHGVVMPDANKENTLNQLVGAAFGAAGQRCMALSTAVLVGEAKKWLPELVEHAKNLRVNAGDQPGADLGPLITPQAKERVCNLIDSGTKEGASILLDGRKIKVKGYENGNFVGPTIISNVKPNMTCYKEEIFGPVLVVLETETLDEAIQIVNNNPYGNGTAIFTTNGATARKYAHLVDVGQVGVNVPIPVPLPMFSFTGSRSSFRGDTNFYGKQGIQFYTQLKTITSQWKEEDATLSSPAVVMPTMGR
UniProt Q9BV10: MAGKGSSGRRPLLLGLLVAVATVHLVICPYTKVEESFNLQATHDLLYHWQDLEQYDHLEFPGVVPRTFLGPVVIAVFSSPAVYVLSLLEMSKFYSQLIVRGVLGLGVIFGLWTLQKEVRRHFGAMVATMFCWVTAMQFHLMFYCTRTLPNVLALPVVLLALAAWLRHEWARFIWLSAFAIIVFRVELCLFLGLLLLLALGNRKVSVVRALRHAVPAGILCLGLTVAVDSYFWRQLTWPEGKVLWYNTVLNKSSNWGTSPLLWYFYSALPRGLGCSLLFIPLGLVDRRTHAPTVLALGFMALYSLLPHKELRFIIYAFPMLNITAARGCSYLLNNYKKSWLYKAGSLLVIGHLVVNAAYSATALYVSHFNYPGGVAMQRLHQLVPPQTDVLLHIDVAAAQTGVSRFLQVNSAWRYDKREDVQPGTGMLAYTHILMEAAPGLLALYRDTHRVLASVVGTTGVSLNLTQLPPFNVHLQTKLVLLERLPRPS
UniProt P54886: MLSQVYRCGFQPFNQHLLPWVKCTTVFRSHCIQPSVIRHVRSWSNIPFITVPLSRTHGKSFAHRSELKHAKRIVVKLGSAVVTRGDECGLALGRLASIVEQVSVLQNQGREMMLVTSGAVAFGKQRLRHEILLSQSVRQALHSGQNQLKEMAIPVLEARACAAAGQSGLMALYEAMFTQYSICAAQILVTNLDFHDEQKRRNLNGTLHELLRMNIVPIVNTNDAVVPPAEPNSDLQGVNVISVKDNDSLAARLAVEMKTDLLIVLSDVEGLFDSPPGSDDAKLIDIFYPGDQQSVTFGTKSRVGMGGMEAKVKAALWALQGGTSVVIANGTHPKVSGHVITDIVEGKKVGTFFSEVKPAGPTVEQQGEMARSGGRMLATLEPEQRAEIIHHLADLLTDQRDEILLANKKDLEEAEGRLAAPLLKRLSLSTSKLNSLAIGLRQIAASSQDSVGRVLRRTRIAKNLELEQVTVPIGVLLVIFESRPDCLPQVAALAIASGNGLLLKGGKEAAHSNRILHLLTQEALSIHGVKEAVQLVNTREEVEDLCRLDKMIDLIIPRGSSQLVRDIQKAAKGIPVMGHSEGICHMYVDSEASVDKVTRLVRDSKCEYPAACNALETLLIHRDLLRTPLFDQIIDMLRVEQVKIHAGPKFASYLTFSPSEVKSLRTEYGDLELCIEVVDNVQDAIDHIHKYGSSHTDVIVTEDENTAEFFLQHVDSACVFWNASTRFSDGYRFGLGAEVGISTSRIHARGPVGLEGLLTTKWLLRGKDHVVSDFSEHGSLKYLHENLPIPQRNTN
UniProt P31751: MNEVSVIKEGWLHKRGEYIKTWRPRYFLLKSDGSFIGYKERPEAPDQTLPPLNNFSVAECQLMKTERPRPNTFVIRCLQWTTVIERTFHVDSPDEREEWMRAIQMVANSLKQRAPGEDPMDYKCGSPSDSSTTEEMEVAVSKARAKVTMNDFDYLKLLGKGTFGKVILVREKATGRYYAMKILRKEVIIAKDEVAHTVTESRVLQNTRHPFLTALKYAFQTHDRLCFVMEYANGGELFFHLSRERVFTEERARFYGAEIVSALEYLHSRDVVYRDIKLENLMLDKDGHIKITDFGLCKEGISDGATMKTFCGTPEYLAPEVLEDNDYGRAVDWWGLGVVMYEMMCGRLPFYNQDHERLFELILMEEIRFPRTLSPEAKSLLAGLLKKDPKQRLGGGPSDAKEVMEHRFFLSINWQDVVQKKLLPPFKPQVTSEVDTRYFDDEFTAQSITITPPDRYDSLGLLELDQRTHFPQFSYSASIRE
UniProt O43823: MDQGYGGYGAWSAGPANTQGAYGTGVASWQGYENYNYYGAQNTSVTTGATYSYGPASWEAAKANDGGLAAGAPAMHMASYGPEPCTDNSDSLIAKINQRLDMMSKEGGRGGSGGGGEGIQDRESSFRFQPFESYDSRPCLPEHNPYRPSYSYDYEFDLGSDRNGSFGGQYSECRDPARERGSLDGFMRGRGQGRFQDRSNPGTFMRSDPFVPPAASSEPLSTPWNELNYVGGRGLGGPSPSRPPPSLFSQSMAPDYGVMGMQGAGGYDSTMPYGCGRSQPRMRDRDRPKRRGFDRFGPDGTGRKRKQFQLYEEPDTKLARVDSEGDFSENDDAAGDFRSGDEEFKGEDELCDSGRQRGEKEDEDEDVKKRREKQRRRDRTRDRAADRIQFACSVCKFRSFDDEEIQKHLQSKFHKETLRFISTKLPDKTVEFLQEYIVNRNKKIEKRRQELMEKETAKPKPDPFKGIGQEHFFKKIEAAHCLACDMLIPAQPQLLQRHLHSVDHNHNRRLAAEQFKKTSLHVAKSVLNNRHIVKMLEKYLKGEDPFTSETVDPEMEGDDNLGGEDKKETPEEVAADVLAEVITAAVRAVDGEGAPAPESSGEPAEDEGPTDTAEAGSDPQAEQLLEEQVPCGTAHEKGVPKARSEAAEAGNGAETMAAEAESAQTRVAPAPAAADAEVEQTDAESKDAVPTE

Columns and labels:
Experiment in all cases: log2 fold change, soluble protein after heating vs DMSO (PISA); higher = thermal stabilisation; K562 cells, 10 uM, 30 min; active = over 0.2 and 3.5 SD of the protein, either way, in both replicates (recomputed)
[1] = compound: CS(=O)(=O)c1ccc(-c2cnc(N)c(C(=O)Nc3ccccc3)n2)cc1
How it was run: (§1)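 Values are thermal stability changes relative to control samples and are taken from duplicates. They are stated as log2 fold changes. Before quantification by TMTpro 16plex LC-MS/MS with equalised channel sums, K562 cells at 2×10^6 cells/mL were treated with 10 μM compound for 30 min, heated in aliquots for 3 min across 48°C-58°C, pooled, extracted in PBS with 0.5% NP-40 at 4°C, and centrifuged at 21,000xg for 90 min to give the soluble supernatant.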

crizotinib = compound: C[C@@H](Oc1cc(-c2cnn(C3CCNCC3)c2)cnc1N)c1c(Cl)ccc(F)c1Cl [crizotinib]
How it was run: as §1

[2] = compound: C[C@@H]1COCCN1C2=NC(=NC(=C2)C3(CC3)S(=O)(=O)C)C4=C5C=CNC5=CC=C4
How it was run: as §1

[3] = compound: C[C@H](C1=CC=C(C=C1)C(=O)NC2=C3C=CNC3=NC=C2)N
How it was run: as §1

duvelisib = compound: C[C@H](Nc1ncnc2nc[nH]c12)c1cc2cccc(Cl)c2c(=O)n1-c1ccccc1 [duvelisib]
How it was run: as §1

gandotinib = compound: Cc1cc(Nc2cc(CN3CCOCC3)c3nc(C)c(Cc4ccc(Cl)cc4F)n3n2)n[nH]1 [gandotinib]
How it was run: as §1

tozasertib = compound: Cc1cc(Nc2cc(N3CCN(C)CC3)nc(Sc3ccc(NC(=O)C4CC4)cc3)n2)n[nH]1 [tozasertib]
How it was run: as §1

[4] = compound: Cc1cc(SCc2sc(-c3ccc(C(F)(F)F)cc3)nc2C)ccc1OCC(=O)O
How it was run: as §1

doramapimod = compound: Cc1ccc(-n2nc(C(C)(C)C)cc2NC(=O)Nc2ccc(OCCN3CCOCC3)c3ccccc23)cc1 [doramapimod]
How it was run: as §1

ispinesib = compound: Cc1ccc(C(=O)N(CCCN)[C@@H](c2nc3cc(Cl)ccc3c(=O)n2Cc2ccccc2)C(C)C)cc1 [ispinesib]
How it was run: as §1

Measured: log2 fold change

AGL (UniProt P35573)
inactive: [1] -0.021 | crizotinib -0.114 | [2] -0.269 | [3] 0.226 | duvelisib -0.156 | gandotinib 0.101 | tozasertib 0.012 | [4] 0.093 | doramapimod 0.101 | ispinesib -0.166

ANAPC10 (UniProt Q9UM13)
inactive: [1] -0.027 | crizotinib -0.064 | [2] -0.093 | [3] 0.118 | duvelisib 0.041 | gandotinib 0.054 | tozasertib 0.027 | [4] 0.004 | doramapimod -0.019 | ispinesib -0.036

AGTRAP (UniProt Q6RW13)
inactive: [1] 0.002 | crizotinib -0.052 | [2] 0.216 | [3] -0.031 | duvelisib 0.133 | gandotinib -0.122 | tozasertib 0.021 | [4] -0.033 | doramapimod 0.036 | ispinesib -0.062

AIMP2 (UniProt Q13155)
inactive: [1] 0.013 | crizotinib -0.079 | [2] -0.394 | [3] 0.465 | duvelisib -0.13 | gandotinib 0.175 | tozasertib -0.036 | [4] 0.072 | doramapimod 0.25 | ispinesib -0.223

AKT1 (UniProt P31749)
inactive: [1] -0.013 | crizotinib -0.104 | [2] -0.188 | [3] 0.135 | gandotinib -0.144 | [4] 0.298 | doramapimod -0.005 | ispinesib -0.03

ADH5 (UniProt P11766)
inactive: [1] -0.021 | crizotinib 0.033 | [2] 0.032 | [3] -0.033 | gandotinib -0.014 | [4] -0.031 | doramapimod -0.033 | ispinesib -0.003

AFDN isoform 1 (UniProt P55196)
inactive: [1] 0.004 | crizotinib 0.088 | [2] 0.371 | [3] 0.111 | gandotinib 0.183 | [4] 0.068 | doramapimod 0.116 | ispinesib 0.11

ALG3 (UniProt Q92685)
inactive: [1] -0.067 | crizotinib 0.087 | [2] 0.001 | [3] -0.077 | gandotinib -0.107 | [4] 0.049 | doramapimod 0.006 | ispinesib -0.086

AKAP8L (UniProt Q9ULX6)
inactive: [1] -0.036 | crizotinib -0.049 | [2] -0.066 | [3] -0.1 | gandotinib -0.007 | [4] 0.092 | doramapimod 0.047 | ispinesib -0.102

AKR1C3 (UniProt P42330)
inactive: [1] -0.101 | crizotinib 0.028 | [2] -0.009 | [3] -0.035 | gandotinib 0.005 | [4] 0.078 | doramapimod -0.012 | ispinesib 0.371

ALKBH5 (UniProt Q6P6C2)
inactive: [1] 0.048 | crizotinib 0.032 | [2] -0.11 | [3] 0.013 | gandotinib 0.267 | [4] -0.055 | doramapimod -0.01 | ispinesib 0.007

AHSA1 (UniProt O95433)
inactive: [1] 0.035 | crizotinib 0.034 | [2] 0.058 | [3] -0.026 | gandotinib -0.077 | [4] 0.023 | doramapimod -0.029 | ispinesib -0.003

ALKBH4 (UniProt Q9NXW9)
inactive: [1] 0.082 | crizotinib -0.033 | [2] 0.172 | [3] 0.029 | gandotinib -0.084 | [4] 0.12 | doramapimod 0.037 | ispinesib -0.109

AGPAT5 (UniProt Q9NUQ2)
inactive: [1] 0.035 | crizotinib -0.117 | [2] 0.151 | [3] -0.014 | gandotinib -0.09 | [4] -0.029 | doramapimod 0.001 | ispinesib -0.145

AGPAT1 (UniProt Q99943)
inactive: [1] 0.017 | crizotinib 0.187 | [2] 0.043 | [3] -0.018 | gandotinib -0.106 | [4] 0.014 | doramapimod 0.019 | ispinesib 0.096

AKR1C2 (UniProt P52895)
inactive: [1] 0.005 | crizotinib -0.029 | [2] -0.159 | [3] 0.219 | gandotinib 0.089 | [4] 0.098 | doramapimod -0.036 | ispinesib 0.077

ALG5 (UniProt Q9Y673)
inactive: [1] 0.005 | crizotinib -0.045 | [2] 0.06 | [3] -0.065 | gandotinib -0.084 | [4] 0.045 | doramapimod -0.032 | ispinesib 0.001

AIFM2 (UniProt Q9BRQ8)
active: ispinesib 0.207
inactive: [1] 0.039 | crizotinib 0.098 | [2] -0.013 | [3] -0.067 | gandotinib 0.022 | [4] -0.032 | doramapimod 0.08

ALDH6A1 (UniProt Q02252)
inactive: [1] -0.008 | crizotinib 0.042 | [2] 0.109 | [3] 0.009 | gandotinib -0.057 | [4] 0.008 | doramapimod 0.033 | ispinesib -0.042

ALG12 (UniProt Q9BV10)
inactive: [1] 0.002 | crizotinib 0.013 | [2] 0.105 | [3] -0.09 | duvelisib -0.004 | tozasertib -0.12 | [4] -0.066 | doramapimod 0.024

Retrieved one by one from the entries so far, 2 records:
ALG5 (UniProt Q9Y673)
inactive: [1] 0.005 | crizotinib -0.045 | [2] 0.06 | [3] -0.065 | gandotinib -0.084 | [4] 0.045 | doramapimod -0.032 | ispinesib 0.001

AKR1C2 (UniProt P52895)
inactive: [1] 0.005 | crizotinib -0.029 | [2] -0.159 | [3] 0.219 | gandotinib 0.089 | [4] 0.098 | doramapimod -0.036 | ispinesib 0.077

The listing continues.

ALDH18A1 (UniProt P54886)
inactive: [1] -0.281 | crizotinib 0.08 | [2] -0.13 | [3] -0.036 | gandotinib -0.323 | [4] 0.032 | doramapimod -0.146 | ispinesib 0.164

AKT2 (UniProt P31751)
inactive: [1] 0.035 | crizotinib -0.18 | [2] -0.211 | [3] 0.051 | gandotinib -0.233 | [4] 0.113 | doramapimod 0.015 | ispinesib -0.083

AGO1 (UniProt Q9UL18)
inactive: [1] -0.071 | crizotinib -0.064 | [2] -0.007 | [3] 0.006 | gandotinib 0.094 | [4] 0.002 | doramapimod -0.066 | ispinesib 0.125

AKAP8 (UniProt O43823)
inactive: [1] 0.047 | crizotinib -0.104 | [2] 0.077 | [3] 0.062 | gandotinib -0.036 | [4] 0.061 | doramapimod 0.033 | ispinesib -0.103

AGPAT3 isoform 3 (UniProt Q9NRZ7)
inactive: [1] -0.051 | crizotinib -0.04 | [2] 0.125 | [3] -0.074 | gandotinib -0.004 | [4] 0.023 | doramapimod 0.004 | ispinesib -0.074

ADRM1 (UniProt Q16186)
inactive: [1] 0.006 | crizotinib -0.109 | [2] -0.028 | [3] 0.138 | gandotinib -0.056 | [4] 0.069 | doramapimod 0.041 | ispinesib -0.05
